In patent publication US11202789B2, “Method of treating glycogen storage disease” (Viking Therapeutics, Inc., priority 2016, dated 2021):

System: male Zucker Diabetic fatty (ZDF) rats
Experiment: 4-week (28 days) efficacy and safety study in male Zucker Diabetic fatty (ZDF) rats
Type: in vivo
Method: Objectives: The objective of the study was to evaluate the efficacy and safety of Compound 2 treatment for 4 weeks in male Zucker Diabetic fatty (ZDF) rats. Total plasma cholesterol, blood glucose levels, liver and muscle glycogen levels, and a plasma clinical chemistry were evaluated. Additionally, histological and biochemical assessments of hepatic steatosis were performed post-mortem. MB07875, a known human thyroid hormone receptor ligand, was included as a comparator in these studies.
Methods: Eight-week old male ZDF rats (n=5/group) were treated orally with Compound 2 or MB07875 for 28 days. The doses of Compound 2 [in 0.5% carboxymethylcellulose (CMC)] were 0.25, 0.5, 1, 2.5, 5, 15 and 50 mg/kg/day. The dose of MB07875 (in 0.5% CMC) was 0.2 mg/kg/day. Body weight was assessed just prior to treatment and at 24 hours following the last dose. Total plasma cholesterol and blood glucose were measured on a weekly basis. […] In addition, the liver was removed and weighed, and a portion freeze-clamped for glycogen and triglyceride analysis. Another portion was placed in 10% neutral buffered formalin for hematoxalin and eosin (H & E) staining. Finally, the heart was excised and weighed.

Cc1cc(OCP2(=O)OCCC(c3cccc(Cl)c3)O2)cc(C)c1Cc1ccc(O)c(C(C)C)c1 (centres unmarked) [Compound 2]
free fatty acid levels (Compound 2 0.25-50 mg/kg/day oral): unaffected
plasma insulin levels (doses of 1 mg/kg/day and above, oral): tended to be higher
